{"source": "the supplement of paper PMC4604168 (melanoma cell lines)", "note": "The other results are listed elsewhere or left out. Many values rest on one well or one pass, so single values are uncertain.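 Imaging used 1,536-well plates; nuclei positive for cleaved PARP by antibody were divided by total DNA-stained nuclei to yield the apoptosis fraction. Doses for screening kept most cells viable, and cell lines differ markedly in resting and induced cleaved-PARP levels.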"}
{"test_system": "A2058", "assay": "cleaved PARP positive nuclei fraction relative to DMSO control; melanoma cells; higher = more apoptosis", "details": "library dose: low library concentration; 72 h", "units": {"cleaved PARP positive nuclei fraction": "%"}}
{"smiles": "Nc1ncn([C@H]2C[C@H](O)[C@@H](CO)O2)c(=O)n1", "note": "[decitabine] + Oc1cc(-c2nc(-c3ccccc3)[nH]c2-c2ccncc2)ccc1Cl [L779450] (first compound 0.1 µM, partner dose 0.2 µM)", "cleaved PARP positive nuclei fraction": 67}
{"smiles": "CNC(=O)c1cc(Oc2ccc(NC(=O)Nc3ccc(Cl)c(C(F)(F)F)c3)cc2)ccn1", "note": "[sorafenib] + Cc1cc([N+](=O)[O-])ccc1NS(=O)(=O)c1cc(Cl)ccc1Cl [FH535] (first compound 0.4 µM, partner dose 1 µM)", "cleaved PARP positive nuclei fraction": 17.6}
{"smiles": "O=C(O)c1ccc2c(c1)nc(Nc1cccc(Cl)c1)c1ccncc12", "note": "+ N#Cc1c(O)c2c(-c3ccc(-c4ccccc4O)cc3)csc2[nH]c1=O [A769662] (first compound 0.4 µM, partner dose 2 µM)", "cleaved PARP positive nuclei fraction": 76.1}
{"smiles": "Nc1ccn([C@@H]2O[C@H](CO)[C@@H](O)C2(F)F)c(=O)n1", "note": "[gemcitabine] + COc1ccc(COc2ccc(Cc3cnc(N)nc3N)cc2OC)cc1 [GW2580] (first compound 0.0004 µM, partner dose 1 µM)", "cleaved PARP positive nuclei fraction": 65.2}
{"smiles": "Nc1ncn([C@H]2C[C@H](O)[C@@H](CO)O2)c(=O)n1", "note": "[decitabine] + O=C1NC(=O)/C(=C/c2ccc(-c3ccc(F)cc3O)o2)S1 [AS252424] (first compound 0.1 µM, partner dose 1 µM)", "cleaved PARP positive nuclei fraction": 53.7}
{"smiles": "CCCS(=O)(=O)Nc1ccc(F)c(C(=O)c2c[nH]c3ncc(Cl)cc23)c1F", "note": "+ Cn1cc(/C=C2\\C(=O)Nc3cccnc32)c2ccccc21 [GW441756] (first compound 0.08 µM, partner dose 0.4 µM)", "cleaved PARP positive nuclei fraction": 47.9}
{"smiles": "Cc1cc(Nc2cc(N3CCN(C)CC3)nc(/C=C/c3ccccc3)n2)n[nH]1", "note": "+ O=c1cc(-c2cccc3c2Sc2ccccc2S3)oc(N2CCOCC2)c1 [KU55933] (first compound 0.04 µM, partner dose 1 µM)", "cleaved PARP positive nuclei fraction": 75.6}
{"smiles": "Cn1c(=O)n(-c2ccc(C(C)(C)C#N)cc2)c2c3cc(-c4cnc5ccccc5c4)ccc3ncc21", "note": "+ COc1cc2ncnc(Nc3ccc(Oc4ccccc4)cc3)c2cc1OC [SrcI1] (first compound 0.004 µM, partner dose 2 µM)", "cleaved PARP positive nuclei fraction": 136}
{"smiles": "Cc1cc(Nc2cc(N3CCN(C)CC3)nc(/C=C/c3ccccc3)n2)n[nH]1", "note": "+ O=S(=O)(c1ccccc1)N(CC(F)(F)F)c1ccc(C(O)(C(F)(F)F)C(F)(F)F)cc1 [T0901317] (first compound 0.04 µM, partner dose 1.4 µM)", "cleaved PARP positive nuclei fraction": 15.5}
{"smiles": "CCCS(=O)(=O)Nc1ccc(F)c(C(=O)c2c[nH]c3ncc(Cl)cc23)c1F", "note": "+ O=C1NC(=O)/C(=C/c2ccc(-c3ccc(F)cc3O)o2)S1 [AS252424] (first compound 0.08 µM, partner dose 1 µM)", "cleaved PARP positive nuclei fraction": 148}
{"smiles": "Cn1c(=O)n(-c2ccc(C(C)(C)C#N)cc2)c2c3cc(-c4cnc5ccccc5c4)ccc3ncc21", "note": "+ CC(C)CCN1c2nc(Nc3cc(F)c(O)c(F)c3)ncc2N(C)C(=O)C1C [BID1870] (first compound 0.004 µM, partner dose 0.2 µM)", "cleaved PARP positive nuclei fraction": 49.4}
{"smiles": "CN1CCN(c2ccc3nc(-c4c(N)c5c(F)cccc5[nH]c4=O)[nH]c3c2)CC1", "note": "[Dovitinib] + Oc1cc(-c2nc(-c3ccccc3)[nH]c2-c2ccncc2)ccc1Cl [L779450] (first compound 0.1 µM, partner dose 0.2 µM)", "cleaved PARP positive nuclei fraction": 33.6}
{"smiles": "Nc1nc(F)nc2c1ncn2[C@@H]1O[C@H](CO)[C@@H](O)[C@@H]1O", "note": "[fludarabine] + COc1cc(N2CCC(N3CCN(C)CC3)CC2)ccc1Nc1ncc(Cl)c(Nc2ccccc2S(=O)(=O)C(C)C)n1 [NVP-TAE684] (first compound 0.2 µM, partner dose 0.08 µM)", "cleaved PARP positive nuclei fraction": 264}
{"smiles": "Nc1ncn([C@H]2C[C@H](O)[C@@H](CO)O2)c(=O)n1", "note": "[decitabine] + COc1ccc(-c2ccc3c(N4CCOCC4)nc(N4C[C@@H](C)O[C@@H](C)C4)nc3n2)cc1CO [KU0063794] (first compound 0.1 µM, partner dose 0.02 µM)", "cleaved PARP positive nuclei fraction": 392}
{"smiles": "CCCS(=O)(=O)Nc1ccc(F)c(C(=O)c2c[nH]c3ncc(Cl)cc23)c1F", "note": "+ Oc1cc(-c2nc(-c3ccccc3)[nH]c2-c2ccncc2)ccc1Cl [L779450] (first compound 0.08 µM, partner dose 0.2 µM)", "cleaved PARP positive nuclei fraction": 45.8}
{"smiles": "C=C(c1ccc(C(=O)O)cc1)c1cc2c(cc1C)C(C)(C)CCC2(C)C", "note": "[Bexarotene] + CCCCCCCCCCCC1=C(O)C(=O)C=C(O)C1=O [Embelin] (first compound 2 µM, partner dose 1.2 µM)", "cleaved PARP positive nuclei fraction": 31.7}
{"smiles": "O=C(O)c1ccc2c(c1)nc(Nc1cccc(Cl)c1)c1ccncc12", "note": "+ Oc1nc(-c2ccc(C(F)(F)F)cc2)nc2c1CSCC2 [XAV939] (first compound 0.4 µM, partner dose 2 µM)", "cleaved PARP positive nuclei fraction": 158}
{"smiles": "C=C(c1ccc(C(=O)O)cc1)c1cc2c(cc1C)C(C)(C)CCC2(C)C", "note": "[Bexarotene] + COC(=O)c1sccc1S(=O)(=O)Nc1ccc(Nc2ccccc2)cc1OC [GSK0660] (first compound 2 µM, partner dose 1 µM)", "cleaved PARP positive nuclei fraction": 111}
{"smiles": "Nc1nc(F)nc2c1ncn2[C@@H]1O[C@H](CO)[C@@H](O)[C@@H]1O", "note": "[fludarabine] + COc1ccc2c(c1)CCC1C2CCC2(C)C(NCCCCCCN3C(=O)C=CC3=O)CCC12 [U73122] (first compound 0.2 µM, partner dose 0.4 µM)", "cleaved PARP positive nuclei fraction": 105}
{"smiles": "O=C(O)[C@@H]1[O][Sb](=[O])([O][Sb]2(=[O])[O][C@H]([C@H](O)CO)[C@H](O)[C@H](C(=O)O)[O]2)[O][C@H]([C@H](O)CO)[C@@H]1O", "note": "(some centres undefined) [stibogluconate] + O=C(O)C(=O)Nc1sc2c(c1C(=O)O)CCNC2 [TCS401] (first compound 2 µM, partner dose 1.66667 µM)", "cleaved PARP positive nuclei fraction": 33.9}
{"smiles": "C=C(c1ccc(C(=O)O)cc1)c1cc2c(cc1C)C(C)(C)CCC2(C)C", "note": "[Bexarotene] + Cc1cc([N+](=O)[O-])ccc1NS(=O)(=O)c1cc(Cl)ccc1Cl [FH535] (first compound 2 µM, partner dose 1 µM)", "cleaved PARP positive nuclei fraction": 84.2}
{"smiles": "C=C(c1ccc(C(=O)O)cc1)c1cc2c(cc1C)C(C)(C)CCC2(C)C", "note": "[Bexarotene] + COc1ccc(COc2ccc(Cc3cnc(N)nc3N)cc2OC)cc1 [GW2580] (first compound 2 µM, partner dose 1 µM)", "cleaved PARP positive nuclei fraction": 126}
{"smiles": "Nc1nc(F)nc2c1ncn2[C@@H]1O[C@H](CO)[C@@H](O)[C@@H]1O", "note": "[fludarabine] + O=C(Nc1ccccc1)c1cc([N+](=O)[O-])ccc1Cl [GW9662] (first compound 0.2 µM, partner dose 2 µM)", "cleaved PARP positive nuclei fraction": 23}
{"smiles": "CC(C)C[C@H](NC(=O)[C@H](Cc1ccccc1)NC(=O)c1cnccn1)B(O)O", "note": "[Bortezomib] + COC(=O)c1sccc1S(=O)(=O)Nc1ccc(Nc2ccccc2)cc1OC [GSK0660] (first compound 0.001 µM, partner dose 1 µM)", "cleaved PARP positive nuclei fraction": 95.6}
{"smiles": "CN1CCN(c2ccc3nc(-c4c(N)c5c(F)cccc5[nH]c4=O)[nH]c3c2)CC1", "note": "[Dovitinib] + COc1ccc(COc2ccc(Cc3cnc(N)nc3N)cc2OC)cc1 [GW2580] (first compound 0.1 µM, partner dose 1 µM)", "cleaved PARP positive nuclei fraction": 165}
{"smiles": "Cn1c(=O)n(-c2ccc(C(C)(C)C#N)cc2)c2c3cc(-c4cnc5ccccc5c4)ccc3ncc21", "note": "+ Cc1cc([N+](=O)[O-])ccc1NS(=O)(=O)c1cc(Cl)ccc1Cl [FH535] (first compound 0.004 µM, partner dose 1 µM)", "cleaved PARP positive nuclei fraction": 32.3}
{"smiles": "CCCS(=O)(=O)Nc1ccc(F)c(C(=O)c2c[nH]c3ncc(Cl)cc23)c1F", "note": "+ Oc1nc(-c2ccc(C(F)(F)F)cc2)nc2c1CSCC2 [XAV939] (first compound 0.08 µM, partner dose 2 µM)", "cleaved PARP positive nuclei fraction": 65.6}
{"smiles": "Nc1nc(F)nc2c1ncn2[C@@H]1O[C@H](CO)[C@@H](O)[C@@H]1O", "note": "[fludarabine] + COc1ccc(-c2ccc3c(N4CCOCC4)nc(N4C[C@@H](C)O[C@@H](C)C4)nc3n2)cc1CO [KU0063794] (first compound 0.2 µM, partner dose 0.02 µM)", "cleaved PARP positive nuclei fraction": 308}
{"smiles": "CS(=O)(=O)CCNCc1ccc(-c2ccc3ncnc(Nc4ccc(OCc5cccc(F)c5)c(Cl)c4)c3c2)o1", "note": "[lapatinib] + O=C(Nc1ccccc1)c1cc([N+](=O)[O-])ccc1Cl [GW9662] (first compound 0.8 µM, partner dose 2 µM)", "cleaved PARP positive nuclei fraction": 141}
{"smiles": "C=C(c1ccc(C(=O)O)cc1)c1cc2c(cc1C)C(C)(C)CCC2(C)C", "note": "[Bexarotene] + CCc1ccc(CCOc2ccc(CC3SC(=O)NC3=O)cc2)nc1 [pioglitazone] (first compound 2 µM, partner dose 2 µM)", "cleaved PARP positive nuclei fraction": 68.5}
{"smiles": "C=C(c1ccc(C(=O)O)cc1)c1cc2c(cc1C)C(C)(C)CCC2(C)C", "note": "[Bexarotene] + c1cc(-c2cnn3cc(-c4ccc(OCCN5CCCCC5)cc4)cnc23)ccn1 [Dorsomorphin] (first compound 2 µM, partner dose 0.4 µM)", "cleaved PARP positive nuclei fraction": 91.9}
{"smiles": "CS(=O)(=O)CCNCc1ccc(-c2ccc3ncnc(Nc4ccc(OCc5cccc(F)c5)c(Cl)c4)c3c2)o1", "note": "[lapatinib] + COc1cc(N2CCC(N3CCN(C)CC3)CC2)ccc1Nc1ncc(Cl)c(Nc2ccccc2S(=O)(=O)C(C)C)n1 [NVP-TAE684] (first compound 0.8 µM, partner dose 0.08 µM)", "cleaved PARP positive nuclei fraction": 76.7}
{"smiles": "CNC(=O)c1cc(Oc2ccc(NC(=O)Nc3ccc(Cl)c(C(F)(F)F)c3)cc2)ccn1", "note": "[sorafenib] + CCN(CC)CCCCNc1ncc2cc(-c3cc(OC)cc(OC)c3)c(NC(=O)NC(C)(C)C)nc2n1 [PD173074] (first compound 0.4 µM, partner dose 0.1 µM)", "cleaved PARP positive nuclei fraction": 147}
{"smiles": "CO[C@H]1C[C@@H]2CC[C@@H](C)[C@@](O)(O2)C(=O)C(=O)N2CCCC[C@H]2C(=O)O[C@H]([C@H](C)C[C@@H]2CC[C@@H](OCCO)[C@H](OC)C2)CC(=O)[C@H](C)/C=C(\\C)[C@@H](O)[C@@H](OC)C(=O)[C@H](C)C[C@H](C)/C=C/C=C/C=C/1C", "note": "[everolimus] + O=C1NC(=O)/C(=C/c2ccc(-c3ccc(F)cc3O)o2)S1 [AS252424] (first compound 0.02 µM, partner dose 1 µM)", "cleaved PARP positive nuclei fraction": 229}
